According to patent publication US5914319A, “Antithrombotic agents” (Eli Lilly and Company, priority 1995, dated 1999):
Where a name gives a salt, the structure may show the parent alone. For at least one compound, name, drawing or mass did not settle the structure.

Assay: Index of bioavailability (% Relative Activity from plasma TT time course)
Format: in vivo
Design: key: NC^1: screening not completed; low or very low activity observed at 20 mg/kg p.o.; NC^2: screening not completed; low or very low activity observed at 60 mg/kg p.o.; NC^3: screening not completed; low or very low activity observed at 50 mg/kg p.o
Conditions: p.o. dose as given in the note
Experimental: Plasma thrombin time (TT) and activated partial thromboplastin time (APTT) are measured with a fibrometer. […] Parke Davis) at 37° C. […] Assays are done in duplicate and averaged. A measure of bioactivity, plasma thrombin time (TT), served as a substitute for the assay of parent compound on the assumption that increments in TT resulted from thrombin inhibition by parent only. The time course of the effect of the thrombin inhibitor upon TT is determined after i.v. bolus administration to anesthetized rats and after oral treatment of fasted conscious rats. Due to limitations of blood volume and the number of points required to determine the time course from time of treatment to the time when the response returned to pretreatment values, two populations of rats are used. Each sample population represented alternating sequential time points. The average TT over the time course is used to calculate area under the curve (AUC). The index of bioavailability is calculated by the formula shown below and is expressed as percent relative activity. The area under the curve (AUC) of the plasma TT time course is determined and adjusted for the dose. […] Bolus injection volume is 1 mL/kg for i.v., and 5 mL/kg for p.o. and infusion volume is 3 mL/hr.

SMILES	% oral/i.v. activity (Rat), screening not completed
CCS(=O)(=O)N[C@H](Cc1ccccc1)C(=O)N1[C@H](C(=O)NCc2ccc(C(=N)N)cc2)C[C@@H]2CCCC[C@@H]21 (relative stereo) [Example 45, EtSO2 -Phe-cis-Ohi-p-NHCH2 C6 H4 C(NH)NH2.HCl]	NC^2
N=C(N)c1ccc(CNC(=O)[C@@H]2C[C@@H]3CCCC[C@@H]3N2C(=O)[C@@H](Cc2ccccc2)NCC(=O)O)cc1 (relative stereo) [Example 47, HOOCCH2 -D-Phe-cis-Ohi-p-NHCH2 C6 H4 C(NH)NH2.HCl]	NC^2
Cl.Cl.N=C(N)c1ccc(CNC(=O)C2CC3CCCCC3N2C(=O)C2NCCC3CCCCC32)cc1 [Example 42, D-1-Piq-cis-Ohi-p-NHCH2 C6 H4 C(NH)NH2.2HCl]	NC^2
Cl.N=C(N)c1ccc(CNC(=O)C2CC3CCCCC3N2C(=O)C(CC2CCCCC2)NCC(=O)O)cc1 [Example 49, HOOCCH2 -D-Cha-cis-Ohi-p-NHCH2 C6 H4 C(NH)NH2.HCl]	NC^2
Cl.N=C(N)c1ccc(CNC(=O)[C@@H]2CCCN2C(=O)[C@@H](CC2CCCCC2)NCC(=O)O)c(F)c1 [Example 71, HO2 CCH2 -D-Cha-Pro-4-NHCH2 -3-F-benzamidine.HCl]	NC^1
Cl.N=C(N)c1cc(F)c(CNC(=O)[C@@H]2CCCN2C(=O)[C@@H](CC2CCCCC2)NCC(=O)O)c(F)c1 [Example 72, HO2 CCH2 -D-Cha-Pro-4-NHCH2 -3,5-F2 -benzamidine.HCl]	NC^1
